The record followed here is the supplement of paper PMC8728848.

The other results are listed elsewhere or left out.

Assay in all cases: glycan array binding signal (z-score within array); higher = stronger binding
Common to all, as to details: glycan notation: IUPAC condensed, linker removed

Experiment [1] concerns the target GlcNAc(b1-2)[GlcNAc(b1-4)]Man(a1-3)[GlcNAc(b1-2)Man(a1-6)]Man(b1-4)GlcNAc(b1-4)GlcNAc. A digest of the protocol: (§1)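 The binding signal is a Z-score computed within each array. Data were drawn from 3228 arrays in the Consortium for Functional Glycomics database, restricted to those with a known protein sequence. Scores were averaged over arrays of the same protein sequence at different concentrations or buffers, and over linkers, and negative values can be taken as non-binding.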

The target of experiment [2] is GlcNAc(b1-2)[GlcNAc(b1-4)]Man(a1-3)[GlcNAc(b1-4)][GlcNAc(b1-2)Man(a1-6)]Man(b1-4)GlcNAc(b1-4)GlcNAc. A digest of the protocol:
as §1

Experiment [3] addresses GlcNAc(b1-2)[GlcNAc(b1-4)]Man(a1-3)[GlcNAc(b1-4)][GlcNAc(b1-2)[GlcNAc(b1-6)]Man(a1-6)]Man(b1-4)GlcNAc(b1-4)GlcNAc. The procedure, abridged: as §1
Experiment [4] deals with GlcNAc(b1-2)[GlcNAc(b1-4)]Man(a1-3)[GlcNAc(b1-4)][GlcNAc(b1-2)[GlcNAc(b1-6)]Man(a1-6)]Man(b1-4)GlcNAc(b1-4)[Fuc(a1-6)]GlcNAc. A digest of the protocol: as §1
The target in experiment [5] is GlcNAc(b1-2)[GlcNAc(b1-6)]Man(a1-6)[GlcNAc(b1-2)Man(a1-3)]Man(b1-4)GlcNAc(b1-4)GlcNAc. The procedure, abridged:
as §1

Experiment [6] addresses GlcNAc(b1-2)[GlcNAc(b1-6)]Man(a1-6)[GlcNAc(b1-2)Man(a1-3)]Man(b1-4)GlcNAc(b1-4)[Fuc(a1-6)]GlcNAc. A digest of the protocol: as §1
For experiment [7], the target named is GlcNAc(b1-2)[GlcNAc(b1-6)]Man(a1-6)[GlcNAc(b1-2)Man(a1-3)][GlcNAc(b1-4)]Man(b1-4)GlcNAc(b1-4)GlcNAc. A digest of the protocol:
as §1

Experiment [8] has as its target GlcNAc(b1-2)[GlcNAc(b1-6)]Man(a1-6)[GlcNAc(b1-4)][GlcNAc(b1-2)Man(a1-3)]Man(b1-4)GlcNAc(b1-4)GlcNAc. A digest of the protocol: as §1
Experiment [9] has as its target GlcNAc(b1-3)Fuc. A digest of the protocol:
as §1

For experiment [10], the target named is GlcNAc(b1-3)Gal. A digest of the protocol: as §1
Experiment [11] addresses GlcNAc(b1-3)Gal(b1-3)GalNAc. A digest of the protocol:
as §1

For experiment [12], the target named is GlcNAc(b1-3)Gal(b1-4)Glc. A digest of the protocol:
as §1

The target of experiment [13] is GlcNAc(b1-3)Gal(b1-4)GlcNAc. A digest of the protocol: as §1
Experiment [14] has as its target GlcNAc(b1-3)Gal(b1-4)GlcNAc(b1-2)Man(a1-3)[GlcNAc(b1-3)Gal(b1-4)GlcNAc(b1-2)Man(a1-6)]Man(b1-4)GlcNAc(b1-4)GlcNAc. A digest of the protocol: as §1
Experiment [15] deals with GlcNAc(b1-3)Gal(b1-4)GlcNAc(b1-2)Man(a1-3)[GlcNAc(b1-3)Gal(b1-4)GlcNAc(b1-2)Man(a1-6)]Man(b1-4)GlcNAc(b1-4)[Fuc(a1-6)]GlcNAc. A digest of the protocol: as §1
Experiment [16] has as its target GlcNAc(b1-3)Gal(b1-4)GlcNAc(b1-2)[GlcNAc(b1-3)Gal(b1-4)GlcNAc(b1-6)]Man(a1-6)[GlcNAc(b1-3)Gal(b1-4)GlcNAc(b1-2)Man(a1-3)]Man(b1-4)GlcNAc(b1-4)GlcNAc. The procedure, abridged: as §1
In experiment [17] the target is GlcNAc(b1-3)Gal(b1-4)GlcNAc(b1-3)Gal(b1-4)GlcNAc. A digest of the protocol:
as §1

Experiment [18] concerns the target GlcNAc(b1-3)Gal(b1-4)GlcNAc(b1-3)Gal(b1-4)GlcNAc(b1-2)Man(a1-3)[GlcNAc(b1-3)Gal(b1-4)GlcNAc(b1-3)Gal(b1-4)GlcNAc(b1-2)Man(a1-6)]Man(b1-4)GlcNAc(b1-4)GlcNAc. A digest of the protocol: as §1
Experiment [19] concerns the target GlcNAc(b1-3)Gal(b1-4)GlcNAc(b1-3)Gal(b1-4)GlcNAc(b1-2)Man(a1-3)[GlcNAc(b1-3)Gal(b1-4)GlcNAc(b1-3)Gal(b1-4)GlcNAc(b1-2)Man(a1-6)]Man(b1-4)GlcNAc(b1-4)[Fuc(a1-6)]GlcNAc. A digest of the protocol: as §1
The target of experiment [20] is GlcNAc(b1-3)Gal(b1-4)GlcNAc(b1-3)Gal(b1-4)GlcNAc(b1-2)[GlcNAc(b1-3)Gal(b1-4)GlcNAc(b1-3)Gal(b1-4)GlcNAc(b1-6)]Man(a1-6)[GlcNAc(b1-3)Gal(b1-4)GlcNAc(b1-3)Gal(b1-4)GlcNAc(b1-2)Man(a1-3)]Man(b1-4)GlcNAc(b1-4)[Fuc(a1-6)]GlcNAc. A digest of the protocol:
as §1

Experiment [21] has as its target GlcNAc(b1-3)Gal(b1-4)GlcNAc(b1-3)Gal(b1-4)GlcNAc(b1-3)Gal(b1-4)GlcNAc(b1-2)Man(a1-3)[GlcNAc(b1-3)Gal(b1-4)GlcNAc(b1-3)Gal(b1-4)GlcNAc(b1-3)Gal(b1-4)GlcNAc(b1-2)Man(a1-6)]Man(b1-4)GlcNAc(b1-4)GlcNAc. The procedure, abridged: as §1
In experiment [22] the target is GlcNAc(b1-3)Gal(b1-4)GlcNAc(b1-3)Gal(b1-4)GlcNAc(b1-3)Gal(b1-4)GlcNAc(b1-2)Man(a1-3)[GlcNAc(b1-3)Gal(b1-4)GlcNAc(b1-3)Gal(b1-4)GlcNAc(b1-3)Gal(b1-4)GlcNAc(b1-2)Man(a1-6)]Man(b1-4)GlcNAc(b1-4)[Fuc(a1-6)]GlcNAc. A digest of the protocol:
as §1

Experiment [23] deals with GlcNAc(b1-3)Gal(b1-4)GlcNAc(b1-3)Gal(b1-4)GlcNAc(b1-3)Gal(b1-4)GlcNAc(b1-2)[GlcNAc(b1-3)Gal(b1-4)GlcNAc(b1-3)Gal(b1-4)GlcNAc(b1-3)Gal(b1-4)GlcNAc(b1-6)]Man(a1-6)[GlcNAc(b1-3)Gal(b1-4)GlcNAc(b1-3)Gal(b1-4)GlcNAc(b1-3)Gal(b1-4)GlcNAc(b1-2)Man(a1-3)]Man(b1-4)GlcNAc(b1-4)[Fuc(a1-6)]GlcNAc. The procedure, abridged: as §1

B1: Flo1 (Saccharomyces cerevisiae), P32768 (protein)
chain: SGATEACLPAGQRKSGMNINFYQYSLKDSSTYSNAAYMAYGYASKTKLGSVGGQTDISIDYNIPCVSSSGTFPCPQEDSYGNWGCKGMGACSNSQGIAYWSTDLFGFYTTPTNVTLEMTGYFLPPQTGSYTFKFATVDDSAILSVGGATAFNCCAQQQPPITSTNFTIDGIKPWGGSLPPNIEGTVYMYAGYYYPMKVVYSNAVSWGTLPISVTLPDGTTVSDDFEGYVYSFDDDLSQSNCTVPDPSNY
With B1, the “glycan array binding signal (z-score)” value is -0.459 in experiment [1]; -0.105 in experiment [2]; -0.728 in [3]; 0.239 in experiment [4]; -0.185 in experiment [5]; -0.369 in [6]. Also, the “glycan array binding signal (z-score)” value was -0.782 in experiment [7]; -0.416 in [8]; -0.347 in experiment [9]; -0.023 in experiment [10]; -0.113 in experiment [11]; -0.053 in experiment [12]. Besides, the “glycan array binding signal (z-score)” value is -0.182 in experiment [13]; 1.32 in experiment [14]; -0.418 in [15]; -0.046 in experiment [16]; -0.437 in [17]; 0.676 in experiment [18]. Besides, the “glycan array binding signal (z-score)” value in [19] was -0.311; in experiment [20], 0.066; in experiment [21], -0.476; in [22] it was 0.226; in [23], 0.276.
